Experimental data from paper PMC8277857.
Results are given in words; binding and its absence hold for the method and conditions named. Binding seen in cells or lysates may run through a third protein. These calls come from enrichment with a bait or labelling near it, and not all partners need be listed. Values belong to the molecule of their own block, whether it stands above or below them.

The chains behind the UniProt entries cited, without tags or fusion partners. Residues count along the entry.
UniProt P51784: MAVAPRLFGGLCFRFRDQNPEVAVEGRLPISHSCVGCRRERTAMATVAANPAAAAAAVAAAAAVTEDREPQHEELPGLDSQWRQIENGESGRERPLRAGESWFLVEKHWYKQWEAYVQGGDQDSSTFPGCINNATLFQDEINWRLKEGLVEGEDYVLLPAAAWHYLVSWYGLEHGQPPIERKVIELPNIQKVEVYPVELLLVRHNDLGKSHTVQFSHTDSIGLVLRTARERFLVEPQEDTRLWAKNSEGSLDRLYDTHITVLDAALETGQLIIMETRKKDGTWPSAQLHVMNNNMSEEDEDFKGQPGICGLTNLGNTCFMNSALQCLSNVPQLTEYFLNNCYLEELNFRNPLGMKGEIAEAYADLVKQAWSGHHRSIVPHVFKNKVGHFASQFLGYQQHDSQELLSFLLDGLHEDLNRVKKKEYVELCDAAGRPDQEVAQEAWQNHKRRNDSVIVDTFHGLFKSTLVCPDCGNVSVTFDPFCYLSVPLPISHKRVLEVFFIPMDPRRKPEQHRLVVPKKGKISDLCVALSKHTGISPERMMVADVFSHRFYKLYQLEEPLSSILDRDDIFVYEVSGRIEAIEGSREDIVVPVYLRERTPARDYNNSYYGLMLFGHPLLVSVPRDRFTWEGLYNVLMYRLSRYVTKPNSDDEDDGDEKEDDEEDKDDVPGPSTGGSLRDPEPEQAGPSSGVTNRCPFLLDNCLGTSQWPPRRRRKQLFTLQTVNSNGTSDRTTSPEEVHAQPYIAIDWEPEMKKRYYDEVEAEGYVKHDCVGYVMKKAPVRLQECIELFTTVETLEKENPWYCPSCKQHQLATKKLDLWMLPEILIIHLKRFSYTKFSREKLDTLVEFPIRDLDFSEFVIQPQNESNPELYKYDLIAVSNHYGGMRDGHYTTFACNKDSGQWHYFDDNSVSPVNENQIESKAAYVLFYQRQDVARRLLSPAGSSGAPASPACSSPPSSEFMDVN
UniProt P0DMV8: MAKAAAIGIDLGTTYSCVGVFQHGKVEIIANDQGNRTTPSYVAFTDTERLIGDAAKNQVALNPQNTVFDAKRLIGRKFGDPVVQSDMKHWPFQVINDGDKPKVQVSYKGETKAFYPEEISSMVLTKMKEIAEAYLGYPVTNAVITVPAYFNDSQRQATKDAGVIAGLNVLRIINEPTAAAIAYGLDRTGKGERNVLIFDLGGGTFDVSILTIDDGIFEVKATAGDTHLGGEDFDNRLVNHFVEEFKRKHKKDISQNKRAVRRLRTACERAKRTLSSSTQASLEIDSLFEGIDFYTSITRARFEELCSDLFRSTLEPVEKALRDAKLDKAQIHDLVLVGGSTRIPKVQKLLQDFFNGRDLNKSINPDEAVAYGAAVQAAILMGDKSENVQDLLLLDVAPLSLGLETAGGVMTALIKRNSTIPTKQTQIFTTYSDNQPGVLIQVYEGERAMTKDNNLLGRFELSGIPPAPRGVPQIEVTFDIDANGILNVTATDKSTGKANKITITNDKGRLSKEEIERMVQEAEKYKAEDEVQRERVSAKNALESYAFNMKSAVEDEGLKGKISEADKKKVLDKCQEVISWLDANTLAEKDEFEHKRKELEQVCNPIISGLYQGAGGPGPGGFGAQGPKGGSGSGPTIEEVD
UniProt P11021, residues 19-654: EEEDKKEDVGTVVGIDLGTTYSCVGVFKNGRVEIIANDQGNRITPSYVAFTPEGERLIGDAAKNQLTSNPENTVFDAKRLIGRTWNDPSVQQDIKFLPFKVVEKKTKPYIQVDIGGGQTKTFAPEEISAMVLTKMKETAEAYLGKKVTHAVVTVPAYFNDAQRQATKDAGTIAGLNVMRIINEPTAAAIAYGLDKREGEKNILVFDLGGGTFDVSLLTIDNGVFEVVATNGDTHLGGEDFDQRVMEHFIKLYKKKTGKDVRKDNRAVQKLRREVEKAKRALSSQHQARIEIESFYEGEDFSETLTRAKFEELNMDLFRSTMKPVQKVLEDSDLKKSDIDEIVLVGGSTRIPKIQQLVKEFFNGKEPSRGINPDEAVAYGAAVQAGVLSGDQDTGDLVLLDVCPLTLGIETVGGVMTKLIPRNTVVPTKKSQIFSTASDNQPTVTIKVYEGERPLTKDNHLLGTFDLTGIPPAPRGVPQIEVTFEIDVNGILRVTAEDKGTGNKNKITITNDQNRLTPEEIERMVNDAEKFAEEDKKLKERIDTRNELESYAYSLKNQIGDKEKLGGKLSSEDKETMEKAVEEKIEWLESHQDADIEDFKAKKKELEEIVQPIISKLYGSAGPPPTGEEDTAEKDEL
UniProt P17844: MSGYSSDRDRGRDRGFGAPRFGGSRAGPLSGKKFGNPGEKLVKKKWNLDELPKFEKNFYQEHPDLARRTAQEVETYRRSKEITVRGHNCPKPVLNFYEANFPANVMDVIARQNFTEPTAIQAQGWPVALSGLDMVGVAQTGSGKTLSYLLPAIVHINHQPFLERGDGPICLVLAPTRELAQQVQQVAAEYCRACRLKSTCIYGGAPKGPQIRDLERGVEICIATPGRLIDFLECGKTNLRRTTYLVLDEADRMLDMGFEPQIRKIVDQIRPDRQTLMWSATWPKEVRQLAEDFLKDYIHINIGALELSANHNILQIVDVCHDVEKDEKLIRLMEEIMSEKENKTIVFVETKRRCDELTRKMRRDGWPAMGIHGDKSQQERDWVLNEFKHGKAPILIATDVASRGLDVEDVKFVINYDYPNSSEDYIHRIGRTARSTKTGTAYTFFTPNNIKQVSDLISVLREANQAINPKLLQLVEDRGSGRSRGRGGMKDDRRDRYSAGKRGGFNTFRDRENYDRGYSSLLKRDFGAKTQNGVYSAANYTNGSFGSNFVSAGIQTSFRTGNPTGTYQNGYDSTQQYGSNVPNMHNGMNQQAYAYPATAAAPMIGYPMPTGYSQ
UniProt O14744: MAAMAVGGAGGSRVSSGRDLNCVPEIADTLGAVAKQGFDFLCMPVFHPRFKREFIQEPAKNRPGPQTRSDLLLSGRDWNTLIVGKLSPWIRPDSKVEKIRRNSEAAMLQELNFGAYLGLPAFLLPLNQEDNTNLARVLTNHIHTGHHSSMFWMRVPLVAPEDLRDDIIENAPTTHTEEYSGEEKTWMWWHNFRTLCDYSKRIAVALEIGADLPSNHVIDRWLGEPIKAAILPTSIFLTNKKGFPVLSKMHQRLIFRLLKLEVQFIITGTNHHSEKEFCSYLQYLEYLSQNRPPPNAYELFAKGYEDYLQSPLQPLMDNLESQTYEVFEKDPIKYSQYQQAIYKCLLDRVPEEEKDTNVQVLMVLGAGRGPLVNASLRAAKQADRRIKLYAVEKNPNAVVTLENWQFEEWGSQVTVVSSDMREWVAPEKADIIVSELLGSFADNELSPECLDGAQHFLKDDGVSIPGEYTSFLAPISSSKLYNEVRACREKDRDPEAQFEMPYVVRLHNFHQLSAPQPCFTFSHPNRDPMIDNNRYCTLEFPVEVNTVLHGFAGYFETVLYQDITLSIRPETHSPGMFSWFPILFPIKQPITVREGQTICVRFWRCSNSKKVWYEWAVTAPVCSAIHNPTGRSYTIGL

Molecular target: USP11 (immunoprecipitated from ES2 cells) (human (in ES2 cells; whether endogenous is not stated)) (UniProt P51784)
Assay: affinity purification with mass spectrometry; immunoprecipitation of USP11 from ES2 cells, mass spectrometry of the co-precipitate

Molecule: HSPA1A (from UniProt P0DMV8 1-641)
- binding: binds

B1: TGM2 (protein, UniProt P21980 1-687)
chain: MAEELVLERCDLELETNGRDHHTADLCREKLVVRRGQPFWLTLHFEGRNYEASVDSLTFSVVTGPAPSQEAGTKARFPLRDAVEEGDWTATVVDQQDCTLSLQLTTPANAPIGLYRLSLEASTGYQGSSFVLGHFILLFNAWCPADAVYLDSEEERQEYVLTQQGFIYQGSAKFIKNIPWNFGQFEDGILDICLILLDVNPKFLKNAGRDCSRRSSPVYVGRVVSGMVNCNDDQGVLLGRWDNNYGDGVSPMSWIGSVDILRRWKNHGCQRVKYGQCWVFAAVACTVLRCLGIPTRVVTNYNSAHDQNSNLLIEYFRNEFGEIQGDKSEMIWNFHCWVESWMTRPDLQPGYEGWQALDPTPQEKSEGTYCCGPVPVRAIKEGDLSTKYDAPFVFAEVNADVVDWIQQDDGSVHKSINRSLIVGLKISTKSVGRDEREDITHTYKYPEGSSEEREAFTRANHLNKLAEKEETGMAMRIRVGQSMNMGSDFDVFAHITNNTAEEYVCRLLLCARTVSYNGILGPECGTKYLLNLNLEPFSEKSVPLCILYEKYRDCLTESNLIKVRALLVEPVINSYLLAERDLYLENPEIKIRILGEPKQKRKLVAEVSLQNPLPVALEGCTFTVEGAGLTEEQKTVEIPDPVEAGEEVKVRMDLLPLHMGLHKLVVNFESDKLKAVKGFRNVIIGPA
- binding: binds

The next lines start with the values.

- binding: binds
Molecule: BIP (in ES2 cells) (from UniProt P11021 19-654)

- binding: binds
Molecule: DDX5 (from UniProt P17844 1-614)

- binding: binds
Molecule: PRMT5 (from UniProt O14744 1-637)
